According to the supplement of paper PMC10849652:
The list shows a part of the results. Residues, ends and D or L forms follow the SMILES beside them. *: point of attachment. Cbz = O=C(OCc1ccccc1)*

Protein sequences, listed by entry. Tags and fused reporters are not part of them. Lines headed by an entry give the natural chain unless they say otherwise; changes in a name come on top.
UniProt P19438, whole entry, looked up: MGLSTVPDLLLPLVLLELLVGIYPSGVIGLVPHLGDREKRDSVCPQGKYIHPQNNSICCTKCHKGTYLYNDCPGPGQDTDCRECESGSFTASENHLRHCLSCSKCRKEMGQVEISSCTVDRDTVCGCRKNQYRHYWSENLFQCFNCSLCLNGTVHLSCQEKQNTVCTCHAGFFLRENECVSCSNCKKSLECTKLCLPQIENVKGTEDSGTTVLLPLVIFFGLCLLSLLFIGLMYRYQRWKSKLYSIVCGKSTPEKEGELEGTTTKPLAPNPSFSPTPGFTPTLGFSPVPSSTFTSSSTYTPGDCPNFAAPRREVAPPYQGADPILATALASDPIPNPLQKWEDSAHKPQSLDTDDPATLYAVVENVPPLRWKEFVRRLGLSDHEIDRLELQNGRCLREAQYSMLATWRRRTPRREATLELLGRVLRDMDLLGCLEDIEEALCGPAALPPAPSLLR
UniProt O00206, whole entry, looked up: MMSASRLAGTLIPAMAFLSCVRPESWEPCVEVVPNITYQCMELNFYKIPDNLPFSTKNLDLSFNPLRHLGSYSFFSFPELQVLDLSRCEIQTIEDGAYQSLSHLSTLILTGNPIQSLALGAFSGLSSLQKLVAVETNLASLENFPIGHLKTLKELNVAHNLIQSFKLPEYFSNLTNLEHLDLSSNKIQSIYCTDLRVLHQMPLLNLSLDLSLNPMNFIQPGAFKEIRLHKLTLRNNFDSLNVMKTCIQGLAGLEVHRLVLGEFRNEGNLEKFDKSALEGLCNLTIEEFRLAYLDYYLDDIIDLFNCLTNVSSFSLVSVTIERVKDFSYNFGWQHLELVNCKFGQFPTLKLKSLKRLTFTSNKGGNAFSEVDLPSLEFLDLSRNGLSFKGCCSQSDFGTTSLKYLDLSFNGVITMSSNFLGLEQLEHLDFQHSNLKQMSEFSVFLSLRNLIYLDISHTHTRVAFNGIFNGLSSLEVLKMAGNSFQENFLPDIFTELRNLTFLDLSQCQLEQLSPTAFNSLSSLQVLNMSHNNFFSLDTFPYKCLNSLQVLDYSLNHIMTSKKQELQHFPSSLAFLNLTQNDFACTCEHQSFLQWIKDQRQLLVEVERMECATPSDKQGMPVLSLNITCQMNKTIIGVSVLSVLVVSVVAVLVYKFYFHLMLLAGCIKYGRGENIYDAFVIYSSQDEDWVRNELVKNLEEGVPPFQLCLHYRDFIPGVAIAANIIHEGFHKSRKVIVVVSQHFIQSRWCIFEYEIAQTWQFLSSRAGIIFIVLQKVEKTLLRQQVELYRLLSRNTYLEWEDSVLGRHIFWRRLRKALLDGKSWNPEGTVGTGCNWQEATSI
UniProt Q9BRR3: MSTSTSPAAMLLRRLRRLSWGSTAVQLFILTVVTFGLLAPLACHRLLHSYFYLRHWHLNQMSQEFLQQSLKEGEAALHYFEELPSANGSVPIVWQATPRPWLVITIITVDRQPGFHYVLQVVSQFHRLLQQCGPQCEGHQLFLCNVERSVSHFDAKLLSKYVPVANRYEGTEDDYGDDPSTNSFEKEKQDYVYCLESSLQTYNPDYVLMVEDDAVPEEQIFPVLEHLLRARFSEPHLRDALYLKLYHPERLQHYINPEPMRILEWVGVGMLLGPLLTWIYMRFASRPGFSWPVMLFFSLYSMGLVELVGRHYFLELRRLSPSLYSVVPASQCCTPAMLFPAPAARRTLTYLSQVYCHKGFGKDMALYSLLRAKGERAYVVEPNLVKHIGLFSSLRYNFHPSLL
UniProt Q9NR96: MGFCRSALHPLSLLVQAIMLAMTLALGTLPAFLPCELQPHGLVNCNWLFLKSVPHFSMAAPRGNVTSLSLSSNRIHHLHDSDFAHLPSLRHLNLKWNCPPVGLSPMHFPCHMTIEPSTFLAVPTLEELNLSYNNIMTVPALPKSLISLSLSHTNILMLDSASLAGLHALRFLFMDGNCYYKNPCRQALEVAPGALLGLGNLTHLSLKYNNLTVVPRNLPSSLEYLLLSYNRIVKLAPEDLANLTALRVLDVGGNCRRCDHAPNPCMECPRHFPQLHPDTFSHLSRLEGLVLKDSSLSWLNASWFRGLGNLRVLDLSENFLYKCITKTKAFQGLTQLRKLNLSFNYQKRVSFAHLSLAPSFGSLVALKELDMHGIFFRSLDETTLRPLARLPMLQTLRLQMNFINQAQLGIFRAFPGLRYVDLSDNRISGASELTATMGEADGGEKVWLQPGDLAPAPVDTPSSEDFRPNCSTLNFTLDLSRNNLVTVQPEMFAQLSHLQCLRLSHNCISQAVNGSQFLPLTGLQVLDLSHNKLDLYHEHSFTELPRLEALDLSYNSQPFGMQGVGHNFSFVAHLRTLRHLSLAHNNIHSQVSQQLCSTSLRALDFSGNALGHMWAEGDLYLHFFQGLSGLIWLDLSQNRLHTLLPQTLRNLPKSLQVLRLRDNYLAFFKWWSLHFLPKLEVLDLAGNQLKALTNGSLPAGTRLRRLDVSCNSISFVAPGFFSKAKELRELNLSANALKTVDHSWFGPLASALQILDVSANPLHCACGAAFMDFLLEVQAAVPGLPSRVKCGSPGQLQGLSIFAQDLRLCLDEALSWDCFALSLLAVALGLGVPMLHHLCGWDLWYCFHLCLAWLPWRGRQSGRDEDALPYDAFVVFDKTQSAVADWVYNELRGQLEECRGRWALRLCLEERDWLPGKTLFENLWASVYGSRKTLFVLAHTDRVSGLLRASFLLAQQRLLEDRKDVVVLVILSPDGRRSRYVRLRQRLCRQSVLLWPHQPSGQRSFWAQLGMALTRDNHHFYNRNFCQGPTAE
UniProt Q8N2U0: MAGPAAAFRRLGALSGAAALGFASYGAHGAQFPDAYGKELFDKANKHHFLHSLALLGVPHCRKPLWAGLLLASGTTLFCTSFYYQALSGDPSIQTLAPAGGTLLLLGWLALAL
UniProt Q9NWH2: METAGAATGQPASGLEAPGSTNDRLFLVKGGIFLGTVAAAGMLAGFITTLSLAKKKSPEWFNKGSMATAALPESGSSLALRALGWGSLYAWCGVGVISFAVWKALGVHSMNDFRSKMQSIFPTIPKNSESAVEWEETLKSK
UniProt Q12767: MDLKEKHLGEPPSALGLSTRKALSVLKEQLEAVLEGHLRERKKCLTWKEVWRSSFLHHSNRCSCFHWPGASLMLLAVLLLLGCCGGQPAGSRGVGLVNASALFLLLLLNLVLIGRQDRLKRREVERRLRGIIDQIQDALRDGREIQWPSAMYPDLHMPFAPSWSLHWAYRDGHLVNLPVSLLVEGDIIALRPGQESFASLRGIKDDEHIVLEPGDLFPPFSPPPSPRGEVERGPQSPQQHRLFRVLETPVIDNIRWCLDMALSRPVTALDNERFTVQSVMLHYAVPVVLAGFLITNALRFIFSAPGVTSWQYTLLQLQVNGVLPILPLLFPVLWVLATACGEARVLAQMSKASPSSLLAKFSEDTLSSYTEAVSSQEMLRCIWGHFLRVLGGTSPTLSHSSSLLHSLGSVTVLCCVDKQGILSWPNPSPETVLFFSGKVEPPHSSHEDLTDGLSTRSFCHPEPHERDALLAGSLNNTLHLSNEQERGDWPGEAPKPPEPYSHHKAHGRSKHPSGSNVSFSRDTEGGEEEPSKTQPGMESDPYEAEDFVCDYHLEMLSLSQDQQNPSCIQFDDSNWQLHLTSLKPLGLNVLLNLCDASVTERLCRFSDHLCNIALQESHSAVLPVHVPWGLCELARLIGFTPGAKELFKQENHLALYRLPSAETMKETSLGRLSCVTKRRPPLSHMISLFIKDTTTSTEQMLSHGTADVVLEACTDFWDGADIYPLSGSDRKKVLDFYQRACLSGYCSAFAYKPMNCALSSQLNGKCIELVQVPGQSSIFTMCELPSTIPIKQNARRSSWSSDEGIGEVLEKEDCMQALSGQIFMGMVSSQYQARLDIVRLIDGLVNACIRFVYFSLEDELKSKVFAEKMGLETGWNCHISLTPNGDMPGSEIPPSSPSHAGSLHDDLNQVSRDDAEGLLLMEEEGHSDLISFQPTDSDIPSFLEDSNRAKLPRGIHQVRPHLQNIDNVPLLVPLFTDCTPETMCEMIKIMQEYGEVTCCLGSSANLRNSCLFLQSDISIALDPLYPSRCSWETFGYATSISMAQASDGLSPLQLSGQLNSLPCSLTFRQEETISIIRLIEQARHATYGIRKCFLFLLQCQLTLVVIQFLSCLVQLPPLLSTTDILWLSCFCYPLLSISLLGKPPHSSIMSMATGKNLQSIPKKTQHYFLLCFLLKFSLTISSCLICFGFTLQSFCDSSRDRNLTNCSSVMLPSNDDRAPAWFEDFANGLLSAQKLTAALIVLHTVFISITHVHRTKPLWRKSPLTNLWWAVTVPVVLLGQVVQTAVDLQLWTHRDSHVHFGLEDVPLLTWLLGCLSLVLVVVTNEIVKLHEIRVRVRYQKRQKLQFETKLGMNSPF
UniProt O94876, whole entry, looked up: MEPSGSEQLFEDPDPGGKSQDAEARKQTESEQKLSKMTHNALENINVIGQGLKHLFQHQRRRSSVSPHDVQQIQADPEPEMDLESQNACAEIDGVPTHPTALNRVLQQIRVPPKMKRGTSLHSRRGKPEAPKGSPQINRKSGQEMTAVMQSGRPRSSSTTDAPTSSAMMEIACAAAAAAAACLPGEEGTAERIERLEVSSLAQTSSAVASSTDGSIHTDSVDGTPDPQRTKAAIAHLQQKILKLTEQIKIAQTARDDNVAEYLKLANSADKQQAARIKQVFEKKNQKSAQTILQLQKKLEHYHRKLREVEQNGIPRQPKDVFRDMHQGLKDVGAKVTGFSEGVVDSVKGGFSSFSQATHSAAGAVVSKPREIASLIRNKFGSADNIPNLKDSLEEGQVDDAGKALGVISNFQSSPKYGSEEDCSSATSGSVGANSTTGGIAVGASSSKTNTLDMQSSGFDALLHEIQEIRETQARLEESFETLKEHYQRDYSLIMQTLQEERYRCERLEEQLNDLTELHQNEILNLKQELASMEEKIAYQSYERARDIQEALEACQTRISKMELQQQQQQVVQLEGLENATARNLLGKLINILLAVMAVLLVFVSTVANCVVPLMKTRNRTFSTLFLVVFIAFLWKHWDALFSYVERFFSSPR
UniProt Q9BVT8: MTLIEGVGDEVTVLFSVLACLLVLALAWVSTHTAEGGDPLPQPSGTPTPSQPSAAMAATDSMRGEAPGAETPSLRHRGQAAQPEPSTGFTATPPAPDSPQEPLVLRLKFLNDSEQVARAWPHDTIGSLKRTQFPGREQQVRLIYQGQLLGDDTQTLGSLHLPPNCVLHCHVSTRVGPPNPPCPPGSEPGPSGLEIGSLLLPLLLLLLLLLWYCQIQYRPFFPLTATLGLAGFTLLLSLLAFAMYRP
UniProt Q5SNT2: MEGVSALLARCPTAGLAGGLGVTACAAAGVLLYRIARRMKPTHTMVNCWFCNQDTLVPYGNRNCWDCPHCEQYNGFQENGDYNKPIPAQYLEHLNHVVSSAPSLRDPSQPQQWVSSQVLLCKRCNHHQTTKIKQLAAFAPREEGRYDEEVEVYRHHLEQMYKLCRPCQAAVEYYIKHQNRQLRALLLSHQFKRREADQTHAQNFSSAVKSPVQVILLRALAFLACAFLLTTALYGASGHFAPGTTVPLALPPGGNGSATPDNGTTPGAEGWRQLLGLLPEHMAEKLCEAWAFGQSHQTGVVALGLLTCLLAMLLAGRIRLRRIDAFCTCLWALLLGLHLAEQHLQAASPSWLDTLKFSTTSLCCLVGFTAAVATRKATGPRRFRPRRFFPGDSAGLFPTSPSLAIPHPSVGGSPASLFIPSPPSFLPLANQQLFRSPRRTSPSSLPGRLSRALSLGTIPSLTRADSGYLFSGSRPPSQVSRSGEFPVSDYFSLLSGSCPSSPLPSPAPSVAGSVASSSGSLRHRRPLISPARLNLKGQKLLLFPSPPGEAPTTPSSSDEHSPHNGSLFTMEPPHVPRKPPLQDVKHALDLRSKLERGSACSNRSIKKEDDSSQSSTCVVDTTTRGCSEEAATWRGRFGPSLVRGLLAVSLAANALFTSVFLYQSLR
UniProt Q03169: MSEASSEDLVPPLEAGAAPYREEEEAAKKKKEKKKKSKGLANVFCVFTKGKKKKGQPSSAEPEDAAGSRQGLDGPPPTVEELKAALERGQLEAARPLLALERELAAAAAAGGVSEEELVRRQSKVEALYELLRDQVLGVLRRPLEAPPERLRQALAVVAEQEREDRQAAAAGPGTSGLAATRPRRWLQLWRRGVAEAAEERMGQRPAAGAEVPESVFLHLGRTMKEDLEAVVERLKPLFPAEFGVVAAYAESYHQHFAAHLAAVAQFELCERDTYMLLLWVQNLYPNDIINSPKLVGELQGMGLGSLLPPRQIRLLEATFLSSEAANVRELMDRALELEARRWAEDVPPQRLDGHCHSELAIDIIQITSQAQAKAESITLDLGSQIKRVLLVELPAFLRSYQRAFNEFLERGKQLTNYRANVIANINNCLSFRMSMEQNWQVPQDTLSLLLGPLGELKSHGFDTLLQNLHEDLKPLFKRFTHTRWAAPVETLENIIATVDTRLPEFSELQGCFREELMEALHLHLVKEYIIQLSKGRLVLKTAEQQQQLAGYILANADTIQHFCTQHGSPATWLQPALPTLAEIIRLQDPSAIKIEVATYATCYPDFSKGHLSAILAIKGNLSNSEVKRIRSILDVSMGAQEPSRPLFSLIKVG

Key:
Test in all cases: log2 fold change, soluble protein after heating vs DMSO (PISA); higher = thermal stabilisation; K562 cells, 10 uM, 30 min; active = over 0.2 and 3.5 SD of the protein, either way, in both replicates (recomputed)
[1] = compound: CC(C)(O)CC(=O)NCCn1ccc2ncnc(Nc3ccc(Oc4cccc(C(F)(F)F)c4)c(Cl)c3)c21
Method in brief: (§1)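 Soluble protein was defined as the supernatant after 21,000xg for 90 min. It came from K562 cells at 2×10^6 cells/mL given 10 μM compound for 30 min, heated in aliquots for 3 min across 48°C-58°C, pooled, and extracted in PBS with 0.5% NP-40 at 4°C, and was quantified by TMTpro 16plex LC-MS/MS with equalised channel sums. Thermal stability against control samples, from duplicates, is reported as log2 fold change.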

[2] = compound: CC(C)C1=C2N=C(C=C(N2N=C1)NCC3=CC=CC=C3)NCCCCCCN
Method in brief: as §1

[3] = compound: CC1=C(C2=C(C=C1)C(=O)C3=CC=CC=C3N2CCCN)C
Method in brief: as §1

[4] = compound: CC1=C(C=C(C=C1)NC(=O)C2=CC(=CC=C2)C(C)(C)C#N)NC3=CC4=C(C=C3)N=CN(C4=O)C
Method in brief: as §1

[5] = compound: CC1=CC=C(C=C1)SC2=C3C=C(SC3=CN=C2)C(=O)N
Method in brief: as §1

Nexturastat A = compound: CCCCN(Cc1ccc(C(=O)NO)cc1)C(=O)Nc1ccccc1 [Nexturastat A]
Method in brief: as §1

[6] = compound: CCCS(=O)(=O)Nc1ccc(F)c(C(=O)c2c[nH]c3ncc(Cl)cc23)c1F
Method in brief: as §1

givinostat = compound: CCN(CC)Cc1ccc2cc(COC(=O)Nc3ccc(C(=O)NO)cc3)ccc2c1 [givinostat]
Method in brief: as §1

ibrutinib = compound: C=CC(=O)N1CCC[C@@H](n2nc(-c3ccc(Oc4ccccc4)cc3)c3c(N)ncnc32)C1 [ibrutinib]
Method in brief: as §1

[7] = compound: CC(=O)c1cnc2ccc(-c3cc(Cl)c(O)c(Cl)c3)nc2c1N[C@H]1CC[C@H](CN(C)C)CC1
Method in brief: as §1

[8] = compound: CC1=C(C(CC(=O)N1)C2=CC=C(C=C2)C(F)(F)F)C(=O)NC3=C(C=C4C(=C3)C=NN4)F
Method in brief: as §1

barasertib = compound: CCN(CCCOc1ccc2c(Nc3cc(CC(=O)Nc4cccc(F)c4)[nH]n3)ncnc2c1)CCOP(=O)(O)O [barasertib]
Method in brief: as §1

ralimetinib = compound: CC(C)(C)Cn1c(N)nc2ccc(-c3[nH]c(C(C)(C)C)nc3-c3ccc(F)cc3)nc21 [ralimetinib]
Method in brief: as §1

[9] = compound: CC(C)C[C@@H](C=O)NC(=O)[C@H](CC(C)C)NC(=O)[C@H](CC(C)C)NC(=O)OCc1ccccc1
Method in brief: as §1

[10] = compound: CC1=C(C=C(C=C1)NC(=O)C2=CC(=CC=C2)N(C)C)NC(=O)C3=CC=C(C=C3)O
Method in brief: as §1

vemurafenib = compound: CCCS(=O)(=O)Nc1ccc(F)c(C(=O)c2c[nH]c3ncc(-c4ccc(Cl)cc4)cc23)c1F [vemurafenib]
Method in brief: as §1

[11] = compound: CCCc1cc(C)[nH]c(=O)c1CNC(=O)c1cc(-c2ccnc(N3CCN(C)CC3)c2)cc2c1cnn2C(C)C
Method in brief: as §1

Measured: log2 fold change

TNFRSF1A (UniProt P19438)
inactive: [1] 0.016 | [2] 0.048 | [3] -0.02 | [4] 0.039 | [5] -0.146 | Nexturastat A 0.244 | [6] -0.141 | givinostat -0.023

TMEM79 (UniProt Q9BSE2)
inactive: ibrutinib 0.015 | [7] -0.266 | [8] -0.029 | [3] 0.079 | barasertib 0

TLR4 (UniProt O00206)
inactive: ibrutinib 0.034 | ralimetinib 0.097 | [2] 0.205 | [9] -0.025 | [3] 0.037 | [4] -0.151 | [10] -0.055 | [5] -0.085 | vemurafenib -0.134 | [6] -0.193 | givinostat 0.268 | barasertib 0.011

TMEM129
inactive: [8] -0.037 | [3] 0.067 | [5] -0.217 | [6] 0.044

TMEM246 (UniProt Q9BRR3)
inactive: [2] -0.031 | givinostat -0.047

Four consecutive entries from above, for reference:
TMEM79 (UniProt Q9BSE2)
inactive: ibrutinib 0.015 | [7] -0.266 | [8] -0.029 | [3] 0.079 | barasertib 0

TLR4 (UniProt O00206)
inactive: ibrutinib 0.034 | ralimetinib 0.097 | [2] 0.205 | [9] -0.025 | [3] 0.037 | [4] -0.151 | [10] -0.055 | [5] -0.085 | vemurafenib -0.134 | [6] -0.193 | givinostat 0.268 | barasertib 0.011

TMEM129
inactive: [8] -0.037 | [3] 0.067 | [5] -0.217 | [6] 0.044

TMEM246 (UniProt Q9BRR3)
inactive: [2] -0.031 | givinostat -0.047

Later entries

TLR9 isoform 4 (UniProt Q9NR96)
inactive: ibrutinib 0.071 | [7] 0.13 | ralimetinib 0.052 | [1] 0.011 | [2] -0.038 | [9] -0.016 | [8] -0.005 | [3] 0.11 | [4] -0.047 | [10] -0.045 | Nexturastat A -0.127 | vemurafenib -0.1 | [11] -0.036 | givinostat -0.01 | barasertib 0.006

TLNRD1 (UniProt Q9H1K6)
inactive: [3] -0.009

TMEM256 (UniProt Q8N2U0)
inactive: [2] -0.342 | givinostat -0.204

TMPO (UniProt G5E972)
inactive: [2] 0.097 | [11] 0.108 | givinostat 0.066

TMEM242 (UniProt Q9NWH2)
inactive: ibrutinib 0.035 | [7] 0.022 | ralimetinib -0.073 | [1] 0.025 | [2] 0.017 | [9] 0.033 | [8] -0.073 | [3] 0.114 | [4] -0.057 | [10] 0 | [5] 0.018 | Nexturastat A 0.079 | vemurafenib 0.078 | [6] -0.064 | [11] -0.037 | givinostat -0.088 | barasertib 0.008

TMEM94 isoform 2 (UniProt Q12767)
inactive: [7] -0.216 | [2] 0.096 | givinostat 0.19

TM7SF2 (UniProt O76062)
inactive: ralimetinib -0.106 | [2] -0.124 | [9] -0.01 | [4] 0.051 | [10] 0.015 | [5] -0.045 | vemurafenib 0.252 | [6] 0.123 | givinostat 0.18

TMCC1 (UniProt O94876)
inactive: [7] 0.241 | [1] -0.055 | [4] -0.019 | Nexturastat A 0.097 | [11] 0.008

TMUB1 (UniProt Q9BVT8)
inactive: ibrutinib -0.051 | [7] -0.057 | ralimetinib 0.099 | [1] 0.028 | [2] -0.114 | [9] -0.096 | [8] 0.01 | [3] 0.098 | [4] -0.177 | [10] 0.044 | [5] 0.136 | Nexturastat A -0.019 | vemurafenib -0.066 | [6] 0.016 | [11] 0.014 | givinostat -0.042 | barasertib -0.018

TMEM237 isoform 3 (UniProt Q96Q45)
inactive: [1] -0.17 | [2] 0.112 | [3] -0.183 | [4] 0.008 | Nexturastat A 0.04 | vemurafenib -0.174 | [11] 0.216 | givinostat -0.209

TMEM201 (UniProt Q5SNT2)
inactive: ibrutinib 0.176 | ralimetinib -0.043 | [1] -0.001 | [2] -0.206 | [9] -0.068 | [8] -0.337 | [3] 0.143 | [4] -0.15 | [10] 0.05 | Nexturastat A 0.026 | [11] 0.225 | givinostat 0.077 | barasertib -0.024

TNFAIP2 (UniProt Q03169)
inactive: ibrutinib 0.123 | [2] 0.188 | [8] -0.003 | [3] -0.021 | [4] -0.19 | givinostat 0.323 | barasertib 0.08

TMEM106C (UniProt Q9BVX2)
inactive: ibrutinib 0.213 | [2] 0.052 | [8] 0.244 | [4] -0.076 | [5] -0.052 | vemurafenib -0.121 | [6] 0.013 | givinostat 0.275 | barasertib 0.101
